Data from patent publication US20180177845A1, “METHOD FOR TREATMENT OR PREVENTION OF A CANCER” (priority 2016, published 2018).
No constants are given. Whether binding was seen depends on the method and setting. A result given as binding can be weak or reduced; the word gives no strength. For some of these results: In cells and extracts the contact can be indirect.

Amino acid sequences for entries named in this document (tags omitted). A change or cut given only in a name is not applied to a line headed by its entry. Residues count along the entry.
UniProt P16144, residues 28-1822: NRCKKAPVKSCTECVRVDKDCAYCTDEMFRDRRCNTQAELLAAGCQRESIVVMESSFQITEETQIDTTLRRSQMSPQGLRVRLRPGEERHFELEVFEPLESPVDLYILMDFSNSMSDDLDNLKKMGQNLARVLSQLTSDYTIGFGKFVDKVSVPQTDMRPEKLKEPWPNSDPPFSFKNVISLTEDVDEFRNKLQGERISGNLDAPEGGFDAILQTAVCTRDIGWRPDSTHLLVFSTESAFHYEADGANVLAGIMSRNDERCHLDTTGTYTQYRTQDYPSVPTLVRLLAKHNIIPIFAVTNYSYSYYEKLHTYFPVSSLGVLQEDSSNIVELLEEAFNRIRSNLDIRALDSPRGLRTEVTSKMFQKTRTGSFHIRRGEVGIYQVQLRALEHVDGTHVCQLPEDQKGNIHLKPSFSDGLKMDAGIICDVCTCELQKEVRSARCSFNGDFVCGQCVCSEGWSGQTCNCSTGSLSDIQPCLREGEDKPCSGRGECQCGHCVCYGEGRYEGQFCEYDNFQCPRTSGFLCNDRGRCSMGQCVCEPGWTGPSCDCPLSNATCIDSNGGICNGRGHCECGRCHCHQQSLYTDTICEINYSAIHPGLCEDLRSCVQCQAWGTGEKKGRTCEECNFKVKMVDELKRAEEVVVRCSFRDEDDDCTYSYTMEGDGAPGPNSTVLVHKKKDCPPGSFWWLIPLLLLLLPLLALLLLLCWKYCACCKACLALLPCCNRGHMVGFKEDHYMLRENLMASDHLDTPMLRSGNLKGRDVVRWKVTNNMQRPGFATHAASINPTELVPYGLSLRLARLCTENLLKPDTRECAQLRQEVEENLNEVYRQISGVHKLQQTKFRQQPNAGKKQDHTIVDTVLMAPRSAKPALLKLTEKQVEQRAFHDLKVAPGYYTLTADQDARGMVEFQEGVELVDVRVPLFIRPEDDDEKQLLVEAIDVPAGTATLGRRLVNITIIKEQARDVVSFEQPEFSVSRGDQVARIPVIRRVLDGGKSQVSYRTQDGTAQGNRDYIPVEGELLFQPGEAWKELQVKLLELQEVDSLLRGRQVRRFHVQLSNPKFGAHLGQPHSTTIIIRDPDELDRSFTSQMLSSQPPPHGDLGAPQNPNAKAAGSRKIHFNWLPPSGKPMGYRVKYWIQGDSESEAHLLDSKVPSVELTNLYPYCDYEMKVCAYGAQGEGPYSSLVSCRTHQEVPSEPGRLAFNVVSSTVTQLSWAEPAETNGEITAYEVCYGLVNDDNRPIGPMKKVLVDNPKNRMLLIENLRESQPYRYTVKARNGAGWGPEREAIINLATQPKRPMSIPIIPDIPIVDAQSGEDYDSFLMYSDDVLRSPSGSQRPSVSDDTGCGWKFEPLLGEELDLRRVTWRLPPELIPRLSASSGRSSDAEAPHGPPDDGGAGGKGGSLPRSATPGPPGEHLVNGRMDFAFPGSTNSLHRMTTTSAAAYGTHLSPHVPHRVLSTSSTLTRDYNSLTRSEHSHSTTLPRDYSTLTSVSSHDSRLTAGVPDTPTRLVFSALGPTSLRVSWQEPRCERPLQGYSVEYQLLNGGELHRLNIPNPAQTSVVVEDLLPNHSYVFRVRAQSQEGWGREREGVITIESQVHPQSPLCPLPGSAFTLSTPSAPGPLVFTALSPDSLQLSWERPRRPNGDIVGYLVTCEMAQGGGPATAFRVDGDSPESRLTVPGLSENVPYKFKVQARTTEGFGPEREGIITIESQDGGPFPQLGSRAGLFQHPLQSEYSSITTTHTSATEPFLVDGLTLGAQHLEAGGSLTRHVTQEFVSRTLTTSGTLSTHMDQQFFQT
UniProt P34152: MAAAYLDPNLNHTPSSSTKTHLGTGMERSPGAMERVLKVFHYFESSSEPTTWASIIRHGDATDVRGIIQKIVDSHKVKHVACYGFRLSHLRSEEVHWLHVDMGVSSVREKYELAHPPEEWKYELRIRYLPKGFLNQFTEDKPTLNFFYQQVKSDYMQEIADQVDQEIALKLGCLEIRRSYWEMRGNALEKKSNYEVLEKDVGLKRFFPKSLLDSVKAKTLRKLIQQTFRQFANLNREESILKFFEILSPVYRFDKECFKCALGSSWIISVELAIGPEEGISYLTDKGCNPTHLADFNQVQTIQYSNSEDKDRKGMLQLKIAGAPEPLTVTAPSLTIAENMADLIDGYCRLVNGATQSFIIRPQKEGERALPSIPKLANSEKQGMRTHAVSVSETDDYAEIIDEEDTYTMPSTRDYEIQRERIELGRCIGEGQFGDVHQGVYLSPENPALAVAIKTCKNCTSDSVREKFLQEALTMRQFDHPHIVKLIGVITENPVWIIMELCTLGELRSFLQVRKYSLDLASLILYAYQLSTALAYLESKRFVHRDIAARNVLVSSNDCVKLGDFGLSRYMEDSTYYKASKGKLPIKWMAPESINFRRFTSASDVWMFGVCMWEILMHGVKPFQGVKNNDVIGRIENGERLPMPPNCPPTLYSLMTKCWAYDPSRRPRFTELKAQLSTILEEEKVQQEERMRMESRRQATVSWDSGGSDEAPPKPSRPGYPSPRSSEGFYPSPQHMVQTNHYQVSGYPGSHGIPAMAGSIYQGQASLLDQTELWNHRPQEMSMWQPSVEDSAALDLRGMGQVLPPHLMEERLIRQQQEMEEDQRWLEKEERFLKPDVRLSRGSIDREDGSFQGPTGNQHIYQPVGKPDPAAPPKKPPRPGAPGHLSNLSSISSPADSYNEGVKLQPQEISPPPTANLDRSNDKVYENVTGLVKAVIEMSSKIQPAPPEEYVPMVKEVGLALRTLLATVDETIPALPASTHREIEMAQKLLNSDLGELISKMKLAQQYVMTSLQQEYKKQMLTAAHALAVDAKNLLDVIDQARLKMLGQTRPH

How the values were obtained:
β4 integrin [1] = target: T1, β4 integrin (human, UniProt P16144 28-1822, limits assumed); assay: co-immunoprecipitation (FIG. 3(d))
T1 construct: Endogenous full-length β4 integrin in lysates or immunoprecipitates; In cells it is paired with α6 integrin; also called integrin β4; ITGB4

β4 integrin [2] = target: T1, β4 integrin; assay: immunoprecipitation and Western blot (FIG. 1d)
β4 integrin [3] = target: T1, β4 integrin; assay: site-directed mutagenesis, immunoprecipitation

Substance | binding (β4 integrin [1]) | binding (β4 integrin [2]) | binding (β4 integrin [3])
FAK^Y397F (from UniProt P34152) (enzyme) | binds |  | 
FAK Lys381Ala (from UniProt P34152) (enzyme) |  | binds | binds
FAK Gln382Ala (from UniProt P34152) (enzyme) |  | binds | binds
FAK Glu380Ala (from UniProt P34152) (enzyme) |  | binds | binds
